PubChem BioAssay AID504804 – Drosophila RNAi Screening Center – 2011
Assay: 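Knock-downs shielding fly cells from apoptosis caused by DNA damage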 (primary screen). System: Drosophila Kc cells. Reagents: long dsRNA against Drosophila genes, 0.5 µg dsRNA per well. Time to read-out: 96 h (48 h knock-down, then 48 h drug). Conditions: doxorubicin 5 µg/ml for 48 h, added 48 h after dsRNA. Measured: 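Viability measured as cellular ATP by luminescence after 48 h knock-down then 48 h doxorubicin at 5 µg/ml; unnormalised plate counts for each replicate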. Scale: raw ATP luminescence: higher = more viable cells, protection from doxorubicin. Call rule: 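Active when both duplicate wells lie at least 2 SD above the plate mean and protection is confirmed by rescreening and independent dsRNAs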.
In all, the deposit lists about 19,000 reagents; this is an unselected part of those that have a named target and a result. Of all reagents, 47 (0.25%) got an active call. 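Signals are raw, not normalised; exact z-scores behind calls not deposited; actives needed confirmation, so some wells reaching 2 SD are inactive.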 A plus sign joins genes that one reagent is predicted to hit. Reagent sequences are not shown.

Cpr12A [DRSC19722]: raw ATP luminescence, replicate 1 = 3.55e5; raw ATP luminescence, replicate 2 = 3.67e5; Outcome = inactive
ppk14 [DRSC03238]: raw ATP luminescence, replicate 1 = 23703; raw ATP luminescence, replicate 2 = 25200; Outcome = inactive
CG34243 (retired record) [DRSC09291]: raw ATP luminescence, replicate 1 = 66440; raw ATP luminescence, replicate 2 = 1.03e5; Outcome = inactive
CG34243 (retired record) [DRSC09292]: raw ATP luminescence, replicate 1 = 78473; raw ATP luminescence, replicate 2 = 1.18e5; Outcome = inactive
Ass + CG31286 [DRSC12493]: raw ATP luminescence, replicate 1 = 64790; raw ATP luminescence, replicate 2 = 74147; Outcome = inactive
ntc [DRSC08166]: raw ATP luminescence, replicate 1 = 44397; raw ATP luminescence, replicate 2 = 34710; Outcome = inactive
CG17107 [DRSC02575]: raw ATP luminescence, replicate 1 = 43410; raw ATP luminescence, replicate 2 = 77337; Outcome = inactive
Fili [DRSC03907]: raw ATP luminescence, replicate 1 = 72663; raw ATP luminescence, replicate 2 = 60977; Outcome = inactive
Fili [DRSC04132]: raw ATP luminescence, replicate 1 = 60183; raw ATP luminescence, replicate 2 = 46760; Outcome = inactive
Fili [DRSC04445]: raw ATP luminescence, replicate 1 = 65123; raw ATP luminescence, replicate 2 = 56793; Outcome = inactive
rumi [DRSC15177]: raw ATP luminescence, replicate 1 = 46957; raw ATP luminescence, replicate 2 = 52440; Outcome = inactive
Vps51 [DRSC06519]: raw ATP luminescence, replicate 1 = 62840; raw ATP luminescence, replicate 2 = 66177; Outcome = inactive
t-cup [DRSC01254]: raw ATP luminescence, replicate 1 = 2.41e5; raw ATP luminescence, replicate 2 = 2.43e5; Outcome = inactive
sNPF-R [DRSC10836]: raw ATP luminescence, replicate 1 = 69840; raw ATP luminescence, replicate 2 = 57793; Outcome = inactive
clos [DRSC06240]: raw ATP luminescence, replicate 1 = 36047; raw ATP luminescence, replicate 2 = 68450; Outcome = inactive
clos [DRSC06241]: raw ATP luminescence, replicate 1 = 42267; raw ATP luminescence, replicate 2 = 75183; Outcome = inactive
clos [DRSC06778]: raw ATP luminescence, replicate 1 = 38950; raw ATP luminescence, replicate 2 = 79807; Outcome = inactive
Drp1 [DRSC00574]: raw ATP luminescence, replicate 1 = 80777; raw ATP luminescence, replicate 2 = 59480; Outcome = inactive
CG44838 [DRSC10330]: raw ATP luminescence, replicate 1 = 15157; raw ATP luminescence, replicate 2 = 14393; Outcome = inactive
CG44838 [DRSC10371]: raw ATP luminescence, replicate 1 = 40343; raw ATP luminescence, replicate 2 = 37560; Outcome = inactive
MED1 [DRSC11808]: raw ATP luminescence, replicate 1 = 20933; raw ATP luminescence, replicate 2 = 20657; Outcome = inactive
dikar [DRSC09699]: raw ATP luminescence, replicate 1 = 37740; raw ATP luminescence, replicate 2 = 34303; Outcome = inactive
Or98b [DRSC16775]: raw ATP luminescence, replicate 1 = 42680; raw ATP luminescence, replicate 2 = 41450; Outcome = inactive
CG34370 [DRSC03913]: raw ATP luminescence, replicate 1 = 73547; raw ATP luminescence, replicate 2 = 62793; Outcome = inactive
CG34370 [DRSC04142]: raw ATP luminescence, replicate 1 = 60460; raw ATP luminescence, replicate 2 = 49883; Outcome = inactive
CG34370 [DRSC04143]: raw ATP luminescence, replicate 1 = 49720; raw ATP luminescence, replicate 2 = 53047; Outcome = inactive
CG34370 [DRSC04144]: raw ATP luminescence, replicate 1 = 40470; raw ATP luminescence, replicate 2 = 44473; Outcome = inactive
CG12419 (retired record) [DRSC14513]: raw ATP luminescence, replicate 1 = 41727; raw ATP luminescence, replicate 2 = 46727; Outcome = inactive
CG15202 [DRSC19649]: raw ATP luminescence, replicate 1 = 3.55e5; raw ATP luminescence, replicate 2 = 3.19e5; Outcome = inactive
CG13003 [DRSC19522]: raw ATP luminescence, replicate 1 = 3.39e5; raw ATP luminescence, replicate 2 = 3.20e5; Outcome = inactive
hang [DRSC19902]: raw ATP luminescence, replicate 1 = 1.37e5; raw ATP luminescence, replicate 2 = 1.64e5; Outcome = inactive
CG13313 [DRSC09984]: raw ATP luminescence, replicate 1 = 64440; raw ATP luminescence, replicate 2 = 78223; Outcome = inactive
CG11307 [DRSC11648]: raw ATP luminescence, replicate 1 = 24513; raw ATP luminescence, replicate 2 = 19830; Outcome = inactive
wrm1 [DRSC11007]: raw ATP luminescence, replicate 1 = 37473; raw ATP luminescence, replicate 2 = 31387; Outcome = inactive
kipf [DRSC15446]: raw ATP luminescence, replicate 1 = 74963; raw ATP luminescence, replicate 2 = 66427; Outcome = inactive
prd [DRSC03597]: raw ATP luminescence, replicate 1 = 1.04e5; raw ATP luminescence, replicate 2 = 79910; Outcome = inactive

Copied from the list.
Vps51 [DRSC06519], Outcome: inactive
CG12419 (retired record) [DRSC14513], raw ATP luminescence, replicate 2 → 46727
Entry for CG13003 [DRSC19522] under “Outcome”: inactive
Entry of Fili [DRSC04445] under “raw ATP luminescence, replicate 1”: 65123
